# Experimental data as given in the supplement of paper PMC7889204.
# Structures can show the parent of a compound that is named as a salt. The list shows a part of the results. Repeats are few or missing, and single values can be far off.
# System: C6
# Experiment: cell mass (Coomassie absorbance) after combination of library compound with HMBA, relative to vehicle control (fraction); higher = more remaining cells (less growth inhibition)
row,SMILES,cell mass
1,Cc1ccccc1-n1c(Cn2nc(-c3cccc(O)c3)c3c(N)ncnc32)nc2cccc(C)c2c1=O + CC(=O)NCCCCCCNC(C)=O [hexamethylene bisacetamide],0.499
2,CNC(=O)c1cc(COc2nnc(Nc3ccc(Cl)cc3)c3ccoc23)ccn1 [Telatinib] + CC(=O)NCCCCCCNC(C)=O [hexamethylene bisacetamide],0.98
3,O=C(O)Cc1ccccc1Nc1c(Cl)cccc1Cl [Diclofenac sodium] + CC(=O)NCCCCCCNC(C)=O [hexamethylene bisacetamide],0.832
4,O=C(NC1CCNCC1)c1n[nH]cc1NC(=O)c1c(Cl)cccc1Cl + CC(=O)NCCCCCCNC(C)=O [hexamethylene bisacetamide],0.559
5,C#Cc1cccc(Nc2ncnc3cc(OCCOC)c(OCCO)cc23)c1 + CC(=O)NCCCCCCNC(C)=O [hexamethylene bisacetamide],0.834
6,Cc1cccc(-c2[nH]c(C(C)(C)C)nc2-c2ccc3nccnc3c2)n1 + CC(=O)NCCCCCCNC(C)=O [hexamethylene bisacetamide],0.447
7,O=c1ncn2nc(Sc3ccc(F)cc3F)ccc2c1-c1c(Cl)cccc1Cl + CC(=O)NCCCCCCNC(C)=O [hexamethylene bisacetamide],0.377
8,Clc1ccc(C2(c3ccc(-c4cn[nH]c4)cc3)CCNCC2)cc1 + CC(=O)NCCCCCCNC(C)=O [hexamethylene bisacetamide],0.633
9,O=C(O)COCCN1CCN(C(c2ccccc2)c2ccc(Cl)cc2)CC1 (stereo not given) [Cetirizine di hcl] + CC(=O)NCCCCCCNC(C)=O [hexamethylene bisacetamide],0.454
10,CCCC(CCC)C(=O)O [Sodium valproate] + CC(=O)NCCCCCCNC(C)=O [hexamethylene bisacetamide],0.603
11,COc1cc(Nc2ncc3c(n2)-c2ccc(Cl)cc2C(c2c(F)cccc2OC)=NC3)ccc1C(=O)O + CC(=O)NCCCCCCNC(C)=O [hexamethylene bisacetamide],0.332
12,COc1ccc2c3n(c(=NC(=O)c4cccnc4)nc2c1OC)CCN3 + CC(=O)NCCCCCCNC(C)=O [hexamethylene bisacetamide],0.367
13,CN(C)c1ccc(-c2nc3ncc(Cl)c(N4CCN(CC(=O)Nc5nccs5)CC4)c3[nH]2)cc1 + CC(=O)NCCCCCCNC(C)=O [hexamethylene bisacetamide],0.552
14,CC1(C)CC(=O)c2c(C(F)(F)F)nn(-c3ccc(C(N)=O)c(N[C@H]4CC[C@H](O)CC4)c3)c2C1 + CC(=O)NCCCCCCNC(C)=O [hexamethylene bisacetamide],0.288
15,COc1cccc(-c2cc(=O)c3ccccc3o2)c1N + CC(=O)NCCCCCCNC(C)=O [hexamethylene bisacetamide],0.634
16,O=C(c1ccc(OCCN2CCCCC2)cc1)c1c(-c2ccc(O)cc2)sc2cc(O)ccc12 [Evista(Raloxifene Hydrochloride] + CC(=O)NCCCCCCNC(C)=O [hexamethylene bisacetamide],0.464
17,CC(C)n1nc(-c2cc3cc(O)ccc3[nH]2)c2c(N)ncnc21 + CC(=O)NCCCCCCNC(C)=O [hexamethylene bisacetamide],1.04
18,C=CC(=O)Nc1cccc(Sc2nc(Nc3ccc(N4CCN(C)CC4)cc3)ncc2Cl)c1 + CC(=O)NCCCCCCNC(C)=O [hexamethylene bisacetamide],0.481
19,CCC(=O)NCC[C@@H]1CCc2ccc3c(c21)CCO3 [Ramelteon(TAK-375)] + CC(=O)NCCCCCCNC(C)=O [hexamethylene bisacetamide],0.377
20,CNC(=O)CN1CCC(Oc2cc3c(Nc4cccc(Cl)c4F)ncnc3cc2OC)CC1 + CC(=O)NCCCCCCNC(C)=O [hexamethylene bisacetamide],0.921

row,SMILES,cell mass
1,CCOc1cc2ncc(C#N)c(Nc3ccc(F)c(Cl)c3)c2cc1NC(=O)/C=C/CN(C)C [Pelitinib] + CC(=O)NCCCCCCNC(C)=O [hexamethylene bisacetamide],0.474
2,Nc1cccc2c1C(=O)N(C1CCC(=O)NC1=O)C2=O (stereo not given) [Pomalidomide] + CC(=O)NCCCCCCNC(C)=O [hexamethylene bisacetamide],0.493
3,C=CCn1c(=O)c2cnc(Nc3ccc(N4CCN(C)CC4)cc3)nc2n1-c1cccc(C(C)(C)O)n1 + CC(=O)NCCCCCCNC(C)=O [hexamethylene bisacetamide],0.583
4,C[C@H]1COC2=C1C(=O)C(=O)c1c2ccc2c1CCCC2(C)C [Cryptotanshinone] + CC(=O)NCCCCCCNC(C)=O [hexamethylene bisacetamide],0.529
5,N#C/C(=C\c1ccc(O)c(O)c1)C(=O)NCc1ccccc1 + CC(=O)NCCCCCCNC(C)=O [hexamethylene bisacetamide],0.492
6,CNC(=O)Nc1ccc(-c2nc(N3CC4CCC(C3)O4)c3cnn(C4CCC5(CC4)OCCO5)c3n2)cc1 + CC(=O)NCCCCCCNC(C)=O [hexamethylene bisacetamide],0.462
7,CCCS(=O)(=O)Nc1ccc(F)c(C(=O)c2c[nH]c3ncc(Cl)cc23)c1F + CC(=O)NCCCCCCNC(C)=O [hexamethylene bisacetamide],0.312
8,NC(=O)c1cccc2[nH]c(-c3ccc(C4CCCN4)cc3F)nc12 (stereo not given) + CC(=O)NCCCCCCNC(C)=O [hexamethylene bisacetamide],0.607
9,CC(=O)Nc1cccc(-n2c(=O)n(C3CC3)c(=O)c3c(Nc4ccc(I)cc4F)n(C)c(=O)c(C)c32)c1 + CC(=O)NCCCCCCNC(C)=O [hexamethylene bisacetamide],0.417
10,CC(C)C[C@H](NC(=O)CNC(=O)c1cc(Cl)ccc1Cl)B1OC(=O)C(CC(=O)O)(CC(=O)O)O1 + CC(=O)NCCCCCCNC(C)=O [hexamethylene bisacetamide],0.165
11,CC(C)c1cnn2c(NCc3ccccc3)cc(NCCCCCCN)nc12 [BS-181 hydrochloride] + CC(=O)NCCCCCCNC(C)=O [hexamethylene bisacetamide],0.597
12,CC1=NN(c2ccc(C)c(C)c2)C(=O)/C1=N\Nc1cccc(-c2cccc(C(=O)O)c2)c1O [Eltrombopag] + CC(=O)NCCCCCCNC(C)=O [hexamethylene bisacetamide],0.568
13,CN(C)CCN1C(=O)c2cccc3cc(N)cc(c23)C1=O [Amonafide] + CC(=O)NCCCCCCNC(C)=O [hexamethylene bisacetamide],0.524
14,Cc1cc(O)c2c(c1)C(=O)c1cccc(O)c1C2=O [Chrysophanic acid] + CC(=O)NCCCCCCNC(C)=O [hexamethylene bisacetamide],0.502
15,CC[C@H](Nc1ncnc2[nH]cnc12)c1nc2cccc(F)c2c(=O)n1-c1ccccc1 + CC(=O)NCCCCCCNC(C)=O [hexamethylene bisacetamide],0.484
16,Cc1cc(Cl)ccc1OCCCC(=O)NO [Droxinostat] + CC(=O)NCCCCCCNC(C)=O [hexamethylene bisacetamide],0.456
17,Fc1cc(-c2cccc3ncc(-c4cnn(C5CCNCC5)c4)nc23)cc(F)c1CN1CCOCC1 + CC(=O)NCCCCCCNC(C)=O [hexamethylene bisacetamide],0.55
18,c1ccc2c(CCNc3ccc(Nc4ccncc4)cc3)c[nH]c2c1 + CC(=O)NCCCCCCNC(C)=O [hexamethylene bisacetamide],0.359
19,COc1ccc2c(c1)c(CC(=O)O)c(C)n2C(=O)c1ccc(Cl)cc1 [Indomethacin] + CC(=O)NCCCCCCNC(C)=O [hexamethylene bisacetamide],0.583
20,CCO[C@@H]1OC(=O)C[C@@H]1NC(=O)[C@@H]1CCCN1C(=O)[C@@H](NC(=O)c1ccc(N)c(Cl)c1)C(C)(C)C + CC(=O)NCCCCCCNC(C)=O [hexamethylene bisacetamide],0.702

# Part of the list above, with bars between the fields:
row | SMILES | cell mass
2 | Nc1cccc2c1C(=O)N(C1CCC(=O)NC1=O)C2=O (stereo not given) [Pomalidomide] + CC(=O)NCCCCCCNC(C)=O [hexamethylene bisacetamide] | 0.493
3 | C=CCn1c(=O)c2cnc(Nc3ccc(N4CCN(C)CC4)cc3)nc2n1-c1cccc(C(C)(C)O)n1 + CC(=O)NCCCCCCNC(C)=O [hexamethylene bisacetamide] | 0.583
4 | C[C@H]1COC2=C1C(=O)C(=O)c1c2ccc2c1CCCC2(C)C [Cryptotanshinone] + CC(=O)NCCCCCCNC(C)=O [hexamethylene bisacetamide] | 0.529
5 | N#C/C(=C\c1ccc(O)c(O)c1)C(=O)NCc1ccccc1 + CC(=O)NCCCCCCNC(C)=O [hexamethylene bisacetamide] | 0.492
6 | CNC(=O)Nc1ccc(-c2nc(N3CC4CCC(C3)O4)c3cnn(C4CCC5(CC4)OCCO5)c3n2)cc1 + CC(=O)NCCCCCCNC(C)=O [hexamethylene bisacetamide] | 0.462
7 | CCCS(=O)(=O)Nc1ccc(F)c(C(=O)c2c[nH]c3ncc(Cl)cc23)c1F + CC(=O)NCCCCCCNC(C)=O [hexamethylene bisacetamide] | 0.312
8 | NC(=O)c1cccc2[nH]c(-c3ccc(C4CCCN4)cc3F)nc12 (stereo not given) + CC(=O)NCCCCCCNC(C)=O [hexamethylene bisacetamide] | 0.607
9 | CC(=O)Nc1cccc(-n2c(=O)n(C3CC3)c(=O)c3c(Nc4ccc(I)cc4F)n(C)c(=O)c(C)c32)c1 + CC(=O)NCCCCCCNC(C)=O [hexamethylene bisacetamide] | 0.417
10 | CC(C)C[C@H](NC(=O)CNC(=O)c1cc(Cl)ccc1Cl)B1OC(=O)C(CC(=O)O)(CC(=O)O)O1 + CC(=O)NCCCCCCNC(C)=O [hexamethylene bisacetamide] | 0.165
